Series [1] deals with OVX+HFD+TAC female mice (C57BL/6N). In words: Whole body metabolism by indirect calorimetry (CLAMS metabolic cage) in OVX+HFD+TAC female mice. It is filed as in vivo, mouse. The note with it: OVX+HFD+TAC females, vs vehicle. As for the experimental part: (§1) All animals were fed a high fat diet (HFD) consisting of 60% kcal derived from fat was fed to both male and female C57BL6N mice for 3 months. Mice were divided into two groups: 1) Controls with intact ovaries; 2) Ovariectomized (Ovx) mice. Mice were assigned to receive trans-aortic constriction (TAC) or sham surgery after 3 months of HFD, and further randomized to placebo vehicle and PDE9-I (PDE9 inhibitor oral gavage 20 mg/kg twice daily) (FIG. 1). Comparison of Group 1 and 2 tests the efficacy of PDE9-I to ameliorate and/or reverse HFD and pressure-overload pathophysiology independent of sex hormone status.
(§2) Whole body metabolism: Indirect calorimetry was used to assess metabolic parameters in live animals using the OxyMAX Comprehensive Lab Animal Monitoring System (Columbus Instruments, Columbus Ohio). Basic metabolic rate (VO2 consumption), VCO2 release and energy expenditure (EE) were measured by indirect calorimetry in high-fat-fed OVX mice groups treated with (Drug) and without PDE9 inhibitor (Control). Respiratory exchange ratio (RER) was calculated from VCO2 release-to-VO2 consumption ratio (VCO2 release/VO2 consumption). CLAMS cabinet was used to measure oxygen consumption rate at 22° C. (VO2), CO2 emission, respiratory exchange ratio, heat production, food consumption (g consumed per day), and total and ambulatory activity per day.
Female mice (C57BL/6N) were placed on a 60% fat diet starting at age 5-weeks. Two weeks later, there were randomized to receive bilateral oophorectomy or sham surgery. Cardiac imaging for ventricular function and morphometry was determined 2 months later. Between 8-11 weeks after ovariectomy, the mice underwent a second surgical procedure introducing a mild aortic constriction (TAC) in the transverse aorta to increase pressure load on the heart. The purpose of the TAC procedure was to stimulate the heart to synthesize natriuretic peptide, which is important for the generation of cyclic GMP which PDE9 regulates. Serial echocardiograms were obtained, and starting 1 week after TAC, mice were further randomized to receive vehicle control or a PDE9 inhibitor (PF-7943). Intact mouse metabolic studies, fat/lean mass determinations, and heart function were assessed. At terminal study, tissues were harvested for molecular signaling.
RER is calculated from VCO2/VO2 ratio. […] Even if fat mass is assumed to contribute only 15% of total metabolic activity relative to lean mass, these differences remain significant (data not shown). […] P values are for unpaired t-tests between groups.

The test system of series [2] is C57BL6/N female mice with intact ovaries, HFD+TAC. Description: Whole body metabolism (indirect calorimetry) in HFD+TAC female mice with intact ovaries. It is filed as in vivo, mouse. Particulars: females with intact ovaries, HFD + pressure overload. Here is the method:
as §1, §2
In a second experiment, we examined the impact of PDE9 inhibition on female mice (C57BL6/N) subjected to HFD+TAC, but without ovariectomy and thus had normal estrogen levels.

SMILES strings stand for the structures.

In the case of `C[C@@H]1CN(Cc2ncccn2)C[C@H]1c1nc2c(cnn2C2CCOCC2)c(=O)[nH]1` [PF 04447943], the ambulatory activity entry is “no significant differences” in series [1] (listed as PDE9-I), “without a concomitant change” in series [1] (listed as PDE9 inhibitor) and “do not show any changes” in series [2]. In addition, the food intake result in series [1] (listed as PDE9-I) is recorded as “no significant differences”; in series [1] (listed as PDE9 inhibitor), “without a concomitant change”; in series [2] (listed as PDE9-I), “no difference”; in series [2] (listed as PDE9i) it was “do not show any changes”. Also, the total activity result in series [1] (listed as PDE9-I) is on record as “no significant differences”; in series [1] (listed as PDE9 inhibitor), “without a concomitant change”; in series [2] (listed as PDE9-I), “no difference”; in series [2] (listed as PDE9i), “do not show any changes”.
